Some of the results follow. Most values lie at the level of the controls, where differences are scatter.

Amino acid sequences for entries named in this document (tags omitted). A change or cut given only in a name is not applied to a line headed by its entry.
UniProt Q15393: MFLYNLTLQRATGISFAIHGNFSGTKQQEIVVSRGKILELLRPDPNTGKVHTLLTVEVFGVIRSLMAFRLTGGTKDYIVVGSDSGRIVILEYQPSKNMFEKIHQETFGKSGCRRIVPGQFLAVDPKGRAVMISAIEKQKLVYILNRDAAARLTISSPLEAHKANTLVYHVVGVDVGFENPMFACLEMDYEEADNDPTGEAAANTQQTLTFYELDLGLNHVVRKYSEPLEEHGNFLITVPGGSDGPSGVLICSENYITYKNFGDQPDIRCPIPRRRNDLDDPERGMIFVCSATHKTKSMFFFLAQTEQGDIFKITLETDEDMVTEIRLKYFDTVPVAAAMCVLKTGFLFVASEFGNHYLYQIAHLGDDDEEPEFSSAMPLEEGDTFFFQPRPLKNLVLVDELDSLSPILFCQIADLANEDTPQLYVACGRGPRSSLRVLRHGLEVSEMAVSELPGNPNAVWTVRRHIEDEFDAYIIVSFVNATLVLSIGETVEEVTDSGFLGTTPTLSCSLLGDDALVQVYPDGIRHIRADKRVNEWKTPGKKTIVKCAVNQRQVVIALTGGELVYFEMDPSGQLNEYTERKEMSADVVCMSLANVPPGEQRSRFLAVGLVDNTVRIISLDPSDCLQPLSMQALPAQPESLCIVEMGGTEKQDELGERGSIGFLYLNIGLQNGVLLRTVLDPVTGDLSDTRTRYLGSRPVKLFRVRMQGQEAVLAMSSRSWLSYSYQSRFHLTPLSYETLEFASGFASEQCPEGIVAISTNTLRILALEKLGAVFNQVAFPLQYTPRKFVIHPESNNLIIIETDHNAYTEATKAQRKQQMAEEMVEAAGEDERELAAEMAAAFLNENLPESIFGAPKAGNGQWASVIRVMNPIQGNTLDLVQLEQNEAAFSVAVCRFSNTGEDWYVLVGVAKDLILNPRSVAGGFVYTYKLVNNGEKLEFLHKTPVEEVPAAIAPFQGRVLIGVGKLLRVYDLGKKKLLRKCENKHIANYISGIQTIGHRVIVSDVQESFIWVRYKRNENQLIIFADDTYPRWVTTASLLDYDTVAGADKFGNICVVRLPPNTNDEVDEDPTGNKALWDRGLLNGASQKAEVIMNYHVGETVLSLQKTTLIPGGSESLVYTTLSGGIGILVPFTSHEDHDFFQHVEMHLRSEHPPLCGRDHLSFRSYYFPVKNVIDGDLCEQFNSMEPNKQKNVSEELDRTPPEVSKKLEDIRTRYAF
UniProt Q15853: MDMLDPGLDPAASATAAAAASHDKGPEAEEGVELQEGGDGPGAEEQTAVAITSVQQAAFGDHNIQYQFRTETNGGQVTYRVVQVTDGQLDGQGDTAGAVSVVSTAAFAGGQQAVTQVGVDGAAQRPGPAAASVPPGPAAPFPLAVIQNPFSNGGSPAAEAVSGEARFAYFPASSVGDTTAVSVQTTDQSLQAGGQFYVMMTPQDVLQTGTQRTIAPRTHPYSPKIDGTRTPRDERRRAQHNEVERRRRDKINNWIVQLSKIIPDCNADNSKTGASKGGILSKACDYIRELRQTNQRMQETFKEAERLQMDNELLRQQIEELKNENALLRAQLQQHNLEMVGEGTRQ
UniProt Q16595: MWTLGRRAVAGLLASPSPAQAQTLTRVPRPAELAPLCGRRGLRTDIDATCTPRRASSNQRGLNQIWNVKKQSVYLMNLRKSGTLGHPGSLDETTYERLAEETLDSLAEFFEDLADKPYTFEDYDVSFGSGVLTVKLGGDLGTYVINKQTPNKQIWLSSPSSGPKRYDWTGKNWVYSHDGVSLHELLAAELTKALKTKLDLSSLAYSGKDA
UniProt Q15532, whole entry: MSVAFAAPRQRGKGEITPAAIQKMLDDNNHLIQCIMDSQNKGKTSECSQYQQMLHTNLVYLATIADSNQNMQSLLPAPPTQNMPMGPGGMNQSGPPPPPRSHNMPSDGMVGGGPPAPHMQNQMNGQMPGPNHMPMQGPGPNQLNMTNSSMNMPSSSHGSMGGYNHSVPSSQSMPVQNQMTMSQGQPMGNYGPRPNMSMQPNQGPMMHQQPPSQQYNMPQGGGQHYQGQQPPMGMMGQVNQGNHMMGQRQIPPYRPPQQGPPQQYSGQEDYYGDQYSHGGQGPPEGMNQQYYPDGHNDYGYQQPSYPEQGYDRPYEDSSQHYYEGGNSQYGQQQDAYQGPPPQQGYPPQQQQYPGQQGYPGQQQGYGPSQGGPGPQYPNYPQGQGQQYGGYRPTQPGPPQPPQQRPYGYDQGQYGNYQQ
UniProt Q15633: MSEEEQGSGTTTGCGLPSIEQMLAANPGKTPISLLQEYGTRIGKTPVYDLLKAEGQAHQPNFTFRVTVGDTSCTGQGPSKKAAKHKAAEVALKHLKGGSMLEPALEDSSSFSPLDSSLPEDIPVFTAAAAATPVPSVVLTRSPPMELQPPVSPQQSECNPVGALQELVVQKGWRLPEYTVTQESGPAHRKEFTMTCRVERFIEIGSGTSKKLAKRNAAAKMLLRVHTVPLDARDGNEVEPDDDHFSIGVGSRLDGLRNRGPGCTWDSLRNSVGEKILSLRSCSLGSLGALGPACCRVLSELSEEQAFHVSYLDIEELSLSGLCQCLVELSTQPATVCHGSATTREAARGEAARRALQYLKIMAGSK
UniProt Q1A5X7: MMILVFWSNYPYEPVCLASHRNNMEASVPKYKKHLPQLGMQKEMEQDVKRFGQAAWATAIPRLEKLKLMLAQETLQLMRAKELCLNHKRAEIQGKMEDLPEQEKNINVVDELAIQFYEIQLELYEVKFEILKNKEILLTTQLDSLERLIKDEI
UniProt Q15834: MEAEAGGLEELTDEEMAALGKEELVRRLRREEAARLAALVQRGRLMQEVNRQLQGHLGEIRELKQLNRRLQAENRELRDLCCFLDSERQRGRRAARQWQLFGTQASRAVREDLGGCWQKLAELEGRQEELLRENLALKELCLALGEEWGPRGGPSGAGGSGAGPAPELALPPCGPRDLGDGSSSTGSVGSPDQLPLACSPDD
UniProt Q15406: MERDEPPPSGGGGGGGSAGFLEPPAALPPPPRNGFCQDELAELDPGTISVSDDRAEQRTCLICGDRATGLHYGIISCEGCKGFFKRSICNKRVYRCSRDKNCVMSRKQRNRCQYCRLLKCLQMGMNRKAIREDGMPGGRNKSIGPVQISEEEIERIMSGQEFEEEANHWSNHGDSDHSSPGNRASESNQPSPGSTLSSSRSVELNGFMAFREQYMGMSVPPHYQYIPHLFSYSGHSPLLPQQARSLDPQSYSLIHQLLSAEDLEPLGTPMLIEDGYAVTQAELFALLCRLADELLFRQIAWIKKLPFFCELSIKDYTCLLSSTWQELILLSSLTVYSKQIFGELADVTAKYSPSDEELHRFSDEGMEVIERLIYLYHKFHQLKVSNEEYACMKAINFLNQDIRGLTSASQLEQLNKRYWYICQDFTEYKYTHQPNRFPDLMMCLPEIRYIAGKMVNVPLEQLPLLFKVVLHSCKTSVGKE
UniProt Q16762: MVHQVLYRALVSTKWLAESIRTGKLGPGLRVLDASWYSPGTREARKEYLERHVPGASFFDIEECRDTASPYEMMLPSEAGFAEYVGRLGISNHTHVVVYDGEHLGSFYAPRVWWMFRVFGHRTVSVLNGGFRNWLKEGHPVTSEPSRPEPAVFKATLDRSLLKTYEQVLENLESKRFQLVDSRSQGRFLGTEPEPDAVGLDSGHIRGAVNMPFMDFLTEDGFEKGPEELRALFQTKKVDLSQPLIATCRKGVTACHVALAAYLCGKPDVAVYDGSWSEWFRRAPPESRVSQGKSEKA
UniProt Q16825: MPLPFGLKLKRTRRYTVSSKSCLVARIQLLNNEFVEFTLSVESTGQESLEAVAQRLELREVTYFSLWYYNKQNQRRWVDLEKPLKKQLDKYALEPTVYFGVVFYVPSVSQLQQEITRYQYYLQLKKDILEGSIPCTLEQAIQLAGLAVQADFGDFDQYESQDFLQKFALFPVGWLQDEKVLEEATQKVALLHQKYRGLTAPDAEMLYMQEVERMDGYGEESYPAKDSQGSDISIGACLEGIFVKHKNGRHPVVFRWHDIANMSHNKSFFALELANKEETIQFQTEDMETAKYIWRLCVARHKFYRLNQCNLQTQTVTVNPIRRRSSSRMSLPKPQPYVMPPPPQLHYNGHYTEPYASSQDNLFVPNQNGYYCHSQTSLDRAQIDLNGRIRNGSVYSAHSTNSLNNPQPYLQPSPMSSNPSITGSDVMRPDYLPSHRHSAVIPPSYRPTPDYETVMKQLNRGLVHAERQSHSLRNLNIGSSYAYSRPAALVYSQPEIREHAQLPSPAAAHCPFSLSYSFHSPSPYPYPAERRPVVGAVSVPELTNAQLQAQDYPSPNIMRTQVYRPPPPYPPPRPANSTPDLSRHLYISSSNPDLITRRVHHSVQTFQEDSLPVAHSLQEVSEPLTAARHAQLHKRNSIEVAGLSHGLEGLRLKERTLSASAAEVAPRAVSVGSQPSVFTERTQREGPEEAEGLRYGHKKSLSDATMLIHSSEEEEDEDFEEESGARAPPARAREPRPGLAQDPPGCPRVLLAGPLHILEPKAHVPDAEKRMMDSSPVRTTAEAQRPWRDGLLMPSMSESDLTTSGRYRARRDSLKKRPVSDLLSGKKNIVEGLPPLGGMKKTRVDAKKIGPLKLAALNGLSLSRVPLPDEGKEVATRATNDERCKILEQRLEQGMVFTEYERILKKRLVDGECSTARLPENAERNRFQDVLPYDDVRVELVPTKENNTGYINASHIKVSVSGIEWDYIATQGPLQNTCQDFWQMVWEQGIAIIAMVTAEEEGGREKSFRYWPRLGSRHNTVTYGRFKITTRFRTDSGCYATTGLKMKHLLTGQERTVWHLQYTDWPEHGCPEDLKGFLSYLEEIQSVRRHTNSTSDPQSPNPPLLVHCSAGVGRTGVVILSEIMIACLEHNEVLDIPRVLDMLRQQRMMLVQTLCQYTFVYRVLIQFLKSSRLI
UniProt Q15599: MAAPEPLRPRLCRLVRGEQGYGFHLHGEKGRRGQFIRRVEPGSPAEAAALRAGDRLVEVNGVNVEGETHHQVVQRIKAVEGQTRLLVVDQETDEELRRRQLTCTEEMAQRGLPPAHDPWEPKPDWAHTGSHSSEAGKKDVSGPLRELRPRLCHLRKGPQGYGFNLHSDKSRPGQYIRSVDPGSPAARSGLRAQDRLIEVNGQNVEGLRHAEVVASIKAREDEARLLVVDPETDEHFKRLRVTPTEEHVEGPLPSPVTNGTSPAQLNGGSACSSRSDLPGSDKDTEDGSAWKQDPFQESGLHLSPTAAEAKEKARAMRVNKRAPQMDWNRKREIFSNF
UniProt Q15653: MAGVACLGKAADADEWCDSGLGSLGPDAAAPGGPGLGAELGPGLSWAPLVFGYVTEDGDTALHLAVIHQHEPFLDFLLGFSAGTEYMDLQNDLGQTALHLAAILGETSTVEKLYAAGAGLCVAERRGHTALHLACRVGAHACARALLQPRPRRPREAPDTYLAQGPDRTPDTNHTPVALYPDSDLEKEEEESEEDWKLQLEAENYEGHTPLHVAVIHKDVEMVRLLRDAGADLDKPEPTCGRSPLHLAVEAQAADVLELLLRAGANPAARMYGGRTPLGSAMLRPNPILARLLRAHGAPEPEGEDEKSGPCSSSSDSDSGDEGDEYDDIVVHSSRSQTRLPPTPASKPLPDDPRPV
UniProt Q15543, whole entry: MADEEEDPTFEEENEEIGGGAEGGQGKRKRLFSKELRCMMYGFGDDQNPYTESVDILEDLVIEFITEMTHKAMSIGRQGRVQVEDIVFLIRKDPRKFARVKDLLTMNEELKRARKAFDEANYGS
UniProt Q3MHD2: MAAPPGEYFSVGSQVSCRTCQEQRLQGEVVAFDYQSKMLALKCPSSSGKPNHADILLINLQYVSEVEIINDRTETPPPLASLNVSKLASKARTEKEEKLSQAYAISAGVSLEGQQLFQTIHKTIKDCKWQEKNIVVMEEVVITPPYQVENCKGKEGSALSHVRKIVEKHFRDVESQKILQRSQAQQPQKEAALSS
UniProt Q15742: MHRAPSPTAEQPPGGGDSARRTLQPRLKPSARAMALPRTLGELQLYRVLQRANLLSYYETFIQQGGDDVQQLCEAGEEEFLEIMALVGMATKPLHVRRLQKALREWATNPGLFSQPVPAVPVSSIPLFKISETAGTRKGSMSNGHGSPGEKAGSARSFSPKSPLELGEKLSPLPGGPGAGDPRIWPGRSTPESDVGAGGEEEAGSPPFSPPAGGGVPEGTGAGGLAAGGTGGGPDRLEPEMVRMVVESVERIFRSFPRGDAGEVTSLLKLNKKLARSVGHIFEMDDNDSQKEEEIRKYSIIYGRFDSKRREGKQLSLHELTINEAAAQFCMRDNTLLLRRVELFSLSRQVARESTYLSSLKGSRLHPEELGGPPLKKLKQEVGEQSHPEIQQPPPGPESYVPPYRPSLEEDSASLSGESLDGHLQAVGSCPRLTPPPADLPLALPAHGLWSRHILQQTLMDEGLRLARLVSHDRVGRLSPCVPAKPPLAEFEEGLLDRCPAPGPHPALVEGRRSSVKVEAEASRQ
UniProt Q15528: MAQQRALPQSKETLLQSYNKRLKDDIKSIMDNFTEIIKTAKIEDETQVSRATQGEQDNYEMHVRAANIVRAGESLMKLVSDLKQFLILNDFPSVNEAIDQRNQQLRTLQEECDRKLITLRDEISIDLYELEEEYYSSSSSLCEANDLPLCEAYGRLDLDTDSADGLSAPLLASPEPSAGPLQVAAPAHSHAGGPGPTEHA

Compound in the assay: CN[C@@H]1C[C@H]2O[C@@](C)([C@@H]1OC)n1c3ccccc3c3c4c(c5c6ccccc6n2c5c31)C(=O)NC4 [staurosporine]
The experiment in a line: log2 fold change of tryptic peptide abundance, ligand vs vehicle (limited proteolysis) (log2 ratio); higher = more trypsin-susceptible (destabilized). The conditions noted are these: ligand concentration: 20 uM; sample: K562 cleared lysate; digestion: 4 min, 22 C (HT-PELSA RT4min, Orbitrap Astral).
For the target “UniProt Q3KQV3 (peptide sequence: HNKCCESGDAFNNK, peptide start residue: 253)”, the log2 fold change was -0.666.

On to “SF3B3 (peptide sequence: LVYILNR, peptide start residue: 140) (UniProt Q15393)”, for which the log2 fold change was -0.24.

With “USF2 (peptide sequence: TETNGGQVTYR, peptide start residue: 70) (UniProt Q15853)”, the log2 fold change was -0.226.

Regarding “ZYX (peptide sequence: FGPVVAPKPK, peptide start residue: 26) (UniProt Q15942)”, the log2 fold change was found to be 0.129.

For “PCK2 (peptide sequence: LARDEGWLAEHMLILGITSPAGK, peptide start residue: 272) (UniProt Q16822)”, the log2 fold change was 0.548.

Turning to “UniProt Q2PPJ7 (peptide sequence: IIQTVGGGAVQER, peptide start residue: 333)”, the log2 fold change turned out to be 0.241.

Turning to “FXN (peptide sequence: GLNQIWNVK, peptide start residue: 61) (UniProt Q16595)”, the log2 fold change is 0.711.

Regarding “UniProt Q2TAY7 (peptide sequence: GVTCLSFSK, peptide start residue: 309)”, the log2 fold change is -0.514.

For “UniProt Q3KP66 (peptide sequence: LEACLEELR, peptide start residue: 130)”, the log2 fold change was -0.0344.

Regarding “SS18 (peptide sequence: MLDDNNHLIQCIMDSQNKGK, peptide start residue: 24) (UniProt Q15532)”, the log2 fold change worked out at 0.137.

Take “TARBP2 (peptide sequence: EFTMTCR, peptide start residue: 191) (UniProt Q15633)”: the log2 fold change turned out to be 0.597.

Turning to “UniProt Q1A5X7 (peptide sequence: FGQAAWATAIPR, peptide start residue: 324)”, the log2 fold change is -0.0431.

Regarding “RBBP7 (peptide sequence: TVALWDLR, peptide start residue: 296) (UniProt Q16576)”, the log2 fold change was -0.192.

For “CCDC85B (peptide sequence: EDLGGCWQK, peptide start residue: 111) (UniProt Q15834)”, the log2 fold change was found to be 0.267.

Regarding “UniProt Q15406 (peptide sequence: ATGLHYGIISCEGCK, peptide start residue: 67)”, the log2 fold change was -0.314.

Take “TST (peptide sequence: KVDLSQPLIATCR, peptide start residue: 237) (UniProt Q16762)”: the log2 fold change is -0.165.

Consider “UniProt Q16825 (peptide sequence: TLSASAAEVAPR, peptide start residue: 656)”, for which the log2 fold change is 0.763.

With “SP6 (peptide sequence: AGGAVEPPGGK, peptide start residue: 353) (UniProt Q3SY56)”, the log2 fold change was -0.223.

In the case of “SLC9A3R2 (peptide sequence: LVEVNGVNVEGETHHQVVQR, peptide start residue: 56) (UniProt Q15599)”, the log2 fold change was -0.226.

As for “UniProt Q16829 (peptide sequence: LRDDGCQAYYLQGGFNK, peptide start residue: 161)”, the log2 fold change was -0.627.

Consider “ALDH1L2 (peptide sequence: DAFENGEWGR, peptide start residue: 491) (UniProt Q3SY69)”, for which the log2 fold change is -0.232.

In the case of “PTGES3 (peptide sequence: GESGQSWPR, peptide start residue: 80) (UniProt Q15185)”, the log2 fold change is -0.0841.

As for “UniProt Q309B1 (peptide sequence: LQEENRK, peptide start residue: 388)”, the log2 fold change was -0.0326.

In the case of “NFKBIB (peptide sequence: TPLGSAMLRPNPILAR, peptide start residue: 276) (UniProt Q15653)”, the log2 fold change amounted to 0.134.

As for “MED1 (peptide sequence: HDGGSPSIK, peptide start residue: 1397) (UniProt Q15648)”, the log2 fold change is -0.212.

On to “UniProt Q15543 (peptide sequence: VKDLLTMNEELKR, peptide start residue: 100)”, for which the log2 fold change came to 0.403.

Consider “RCN1 (peptide sequence: DGKLDKDEIR, peptide start residue: 261) (UniProt Q15293)”, for which the log2 fold change was determined as 0.608.

On to “DLGAP5 (peptide sequence: ILVELDETSQGLVPEK, peptide start residue: 59) (UniProt Q15398)”, for which the log2 fold change is -0.395.

As for “CSPP1 (peptide sequence: ERNPMDIFDMAR, peptide start residue: 976) (UniProt Q1MSJ5)”, the log2 fold change is 0.454.

Turning to “UniProt Q3MHD2 (peptide sequence: EGSALSHVR, peptide start residue: 155)”, the log2 fold change turned out to be 0.32.

Take “NAB2 (peptide sequence: SSVKVEAEASRQ, peptide start residue: 514) (UniProt Q15742)”: the log2 fold change is -0.951.

With “UniProt Q16181 (peptide sequence: MEMEMEQVFEMK, peptide start residue: 353)”, the log2 fold change is -0.804.

Turning to “MED22 (peptide sequence: TLQEECDRK, peptide start residue: 107) (UniProt Q15528)”, the log2 fold change is -0.372.

“SEC23B (peptide sequence: LSDSFSLYPQFMFHLRR, peptide start residue: 572) (UniProt Q15437)”: the log2 fold change amounted to 0.43.

For “TCEA2 (peptide sequence: DASEAPDPSR, peptide start residue: 102) (UniProt Q15560)”, the log2 fold change is -0.454.

In the case of “UniProt Q16659 (peptide sequence: ESEVNHYYEPK, peptide start residue: 461)”, the log2 fold change is 0.507.

Source of the values: the supplement of paper PMC12819154, “High-throughput peptide-centric local stability assay extends protein–ligand identification to membrane proteins, tissues and bacteria” (Nature Structural & Molecular Biology, 2025).
